No constants are given. Whether binding was seen depends on the method and setting.
Molecular target: His6-SUMO [SUMO: Q12306]
Assay: BLI; His6-SUMO immobilised on the sensor; JDPs or Ssa1 in solution; background control; both purified

binding: no binding
B1: Sis1 (protein, UniProt P25294 1-352)
chain: MVKETKLYDLLGVSPSANEQELKKGYRKAALKYHPDKPTGDTEKFKEISEAFEILNDPQKREIYDQYGLEAARSGGPSFGPGGPGGAGGAGGFPGGAGGFSGGHAFSNEDAFNIFSQFFGGSSPFGGADDSGFSFSSYPSGGGAGMGGMPGGMGGMHGGMGGMPGGFRSASSSPTYPEEETVQVNLPVSLEDLFVGKKKSFKIGRKGPHGASEKTQIDIQLKPGWKAGTKITYKNQGDYNPQTGRRKTLQFVIQEKSHPNFKRDGDDLIYTLPLSFKESLLGFSKTIQTIDGRTLPLSRVQPVQPSQTSTYPGQGMPTPKNPSQRGNLIVKYKVDYPISLNDAQKRAIDENF
